At least one peptide structure holds a part that was inferred or is arguable (an end, a ring closure or a residue). Marks after values point to notes of the source that are not given here.
Columns and labels:
human keratinocytes [1] = experiment: Keratinocyte proliferation, 3H-thymidine incorporation, 6 hour protocol; type: cell-based; conditions: 1 nM; 6 hours incubation
Ehrlich solid carcinoma = experiment: Growth of subcutaneously transplanted Ehrlich solid carcinoma in rats (tumor volume); type: in vivo; conditions: 0.1 mg/kg
Method: (§1) This example illustrates the anti-cancer property of an inventive peptide with a D-amino acid as residue 20. Various tumor cells were transplanted into mice or rats and the tumor volume was measured using a caliper-ruler. The volume of the tumor, in cubic mm, was estimated as the long axis×the square of the short axis divided by 2.
(§2) The second experiment and third experiment (data shown in Tables 3 and 4) were conducted on white non-inbred male rats with a subcutaneous transplant of Walker carcinosarcoma or Ehrlich solid carcinoma. Animals after transplantation of tumors were mixed and were divided into groups of controls, CRH-treated and [D-Glu^20] CRH-treated.

Walker carcinosarcoma = experiment: Growth of subcutaneously transplanted Walker carcinosarcoma in rats (tumor volume); type: in vivo; conditions: 0.1 mg/kg
Method: as §1, §2

Human melanoma cells = experiment: Melanoma cell growth curves in vitro (Promega Aqueous Cell Proliferation Assay); type: cell-based; conditions: low concentrations (tested 10^-6, 10^-8 and 10^-10 M)
B16 melanoma = experiment: Growth of subcutaneously transplanted B16 melanoma in mice (tumor volume by caliper); type: in vivo; conditions: 0.1 mg/kg s.c. on days 3 to 7
Method: as §1
In the experiment of Table 2, female mice, weighing 20-25 g, of a C57B1 line, were transplanted under the skin with B16 melanoma cells. After transplantation of tumors mice were mixed and divided into groups of controls, CRH-treated and [D-Glu^20] CRH-treated. The test substances at a dose of 0.1 mg/kg subcutaneously or the vehicle control (saline) was injected on days 3 to 7 after tumor transplantation, and the volume of tumors were measured at various days afterwards.

human keratinocytes [2] = experiment: Keratinocyte proliferation, 3H-thymidine incorporation, 24 hour pre-treatment plus overnight protocol; type: cell-based; conditions: concentration as low as 10 pM; FIG. 2

CC[C@H](C)[C@H](NC(=O)[C@@H](NC(=O)[C@H](CCC(=O)O)NC(=O)[C@H](CCSC)NC(=O)[C@H](CC(C)C)NC(=O)[C@H](CCCCN)NC(=O)[C@H](CCCNC(=N)N)NC(=O)[C@H](CC(N)=O)NC(=O)[C@H](CO)NC(=O)[C@H](Cc1c[nH]cn1)NC(=O)[C@H](C)NC(=O)[C@H](CCC(N)=O)NC(=O)[C@H](CCC(N)=O)NC(=O)[C@H](C)NC(=O)[C@H](CC(C)C)NC(=O)[C@H](CCC(N)=O)NC(=O)[C@H](CCC(=O)O)NC(=O)[C@H](C)NC(=O)[C@H](CCCNC(=N)N)NC(=O)[C@H](C)NC(=O)[C@H](CCSC)NC(=O)[C@@H](CCC(=O)O)NC(=O)[C@H](CC(C)C)NC(=O)[C@@H](NC(=O)[C@H](CCC(=O)O)NC(=O)[C@H](CCCNC(=N)N)NC(=O)[C@H](CC(C)C)NC(=O)[C@H](CC(C)C)NC(=O)[C@H](Cc1c[nH]cn1)NC(=O)[C@H](Cc1ccccc1)NC(=O)[C@@H](NC(=O)[C@H](CC(C)C)NC(=O)[C@H](CC(=O)O)NC(=O)[C@H](CC(C)C)NC(=O)[C@H](CO)NC(=O)[C@@H](NC(=O)[C@@H]1CCCN1C(=O)[C@@H]1CCCN1C(=O)[C@H](CCC(=O)O)NC(=O)[C@H](CCC(=O)O)NC(=O)[C@@H](N)CO)[C@@H](C)CC)[C@@H](C)O)C(C)C)[C@@H](C)CC)C(N)=O [[D-Glu^20] CRH]
inhibition of DNA synthesis (3H-thymidine incorporation) (human keratinocytes [1]): Significant inhibition of DNA synthesis | Volume of Tumors (Ehrlich solid carcinoma; day 11 after transplantation): 470 ± 80* mm^3 | Volume of Tumors (Ehrlich solid carcinoma; day 14 after transplantation): 571 ± 199* mm^3 | Volume of Tumors (Walker carcinosarcoma; day 7 after transplantation): 127 mm^3 | Volume of Tumors (Walker carcinosarcoma; day 10 after transplantation): 3926 ± 633 mm^3 | Volume of Tumors (Walker carcinosarcoma; day 12 after transplantation): 6554 mm^3 | Volume of Tumors (Walker carcinosarcoma; day 14 after transplantation): 10191 mm^3 | inhibition of melanoma cell growth in vitro (Human melanoma cells): able to inhibit melanoma cell growth | Volume of Tumors (B16 melanoma; day 10 after transplantation): 37 + 7* mm^3 | Volume of Tumors (B16 melanoma; day 12 after transplantation): 86 + 15* mm^3 | Volume of Tumors (B16 melanoma; day 14 after transplantation): 138 + 16* mm^3 | Volume of Tumors (B16 melanoma; day 17 after transplantation): 252 + 54 mm^3 | inhibition of cell proliferation as measured by DNA synthesis (human keratinocytes [2]): significant and dose-dependent inhibition of cell proliferation
